This is an account of results in publication PMC13522591.

These are yes or no findings as the source states them, for the method shown. Binding seen in cells or lysates may run through a third protein. These calls come from enrichment with a bait or labelling near it, and not all partners need be listed. Where a sequence is shown, tags or fusion partners need not be part of it.

In experiment [1] the target is T1, Flag-RAB3A (residues 18-190, Q81L), unphosphorylated (UniProt P20336).
T1 sequence: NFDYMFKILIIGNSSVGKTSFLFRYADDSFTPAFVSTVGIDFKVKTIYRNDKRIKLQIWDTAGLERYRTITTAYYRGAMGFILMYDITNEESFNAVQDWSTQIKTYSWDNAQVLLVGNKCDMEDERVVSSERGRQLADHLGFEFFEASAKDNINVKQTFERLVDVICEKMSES
Kind of experiment: affinity purification with mass spectrometry; phospho-FLAG-RAB3A or FLAG-RAB3A bound to anti-DYKDDDDK magnetic agarose as bait; incubated 1 h at 4 °C with whole brain lysate of mice given MLi-2 (30 mg/kg, 2 h); washed twice with high-salt lysis buffer (500 mM NaCl) and then regular lysis buffer (0.5% NP40, 5 mM MgCl2); DIA MS on Orbitrap Astral, 6 replicates per condition; only the target purified.

The target in experiment [2] is T2, phospho-FLAG-RAB3A (residues 18-190, Q81L, pT86) (UniProt P20336).
T2 sequence (chain, phosphothreonine at 86 (Thr86, by MST3 kinase, site confirmed by MS)): T1 sequence
The description is as above.

With “UNC13 (MUNC13) (mouse (endogenous in brain))”, the binding result in experiment [1] is “binds”.

B1: ERC2 (protein, UniProt Q6PH08 1-957)
chain: MYGSARTISNLEGSPSRSPRLPRSPRLGHRRTSSGGGGGTGKTLSMENIQSLNAAYATSGPMYLSDHEGVASTTYPKGTMTLGRATNRAVYGGRVTAMGSSPNIASAGLSHTDVLSYTDQHGGLSGSSHHHHHQVPSMLRQVRDSTMLDLQAQLKELQRENDLLRKELDIKDSKLGSSMNSIKTFWSPELKKERVLRKEEAARMSVLKEQMRVSHEENQHLQLTIQALQDELRTQRDLNHLLQQESGNRGAEHFTIELTEENFRRLQAEHDRQAKELFLLRKTLEEMELRIETQKQTLNARDESIKKLLEMLQSKGLPSKSLEDDNERTRRMAEAESQVSHLEVILDQKEKENIHLREELHRRSQLQPEPAKTKALQTVIEMKDTKIASLERNIRDLEDEVQMLKANGVLNTEDREEEIKQIEVYKSHSKFMKTKIDQLKQELSKKESELLALQTKLETLSNQNSDCKQHIEVLKESLTAKEQRAAILQTEVDALRLRLEEKESFLNKKTKQLQDLTEEKGTLAGEIRDMKDMLEVKERKINVLQKKIENLQEQLRDKDKQLTNLKDRVKSLQTDSSNTDTALATLEEALSEKERIIERLKEQRERDDRERLEEIESFRKENKDLKEKVNALQAELTEKESSLIDLKEHASSLASAGLKRDSKLKSLEIAIEQKKEECNKLEAQLKKAHNIEDDSRMNPEFADRLKQLDKEASYYRDECGKAQAEVDRLLEILKEVENEKNDKDKKIAELESLTLRHMKDQNKKVANLKYNQQLEKKKNAQLLEEVRRREDSMVDNSQHLQIEELMNALEKTRQELDATKARLASTQQSLAEKEAHLANLRIERRKQLEEILEMKQEALLAAISEKDANIALLELSASKKKKTQEEVMALKREKDRLVHQLKQQTQNRMKLMADNYDEDHHHYHHHHHHHHHRSPGRSQHSNHRPSPDQDDEEGIWA
Take B1: the binding result in experiment [1] is listed as “binds”.

B2: ERC1 (protein, UniProt Q99MI1 1-1120)
chain: MYGSARSVGKVEPSSQSPGRSPRLPRSPRLGHRRTNSTGGSSGNSVGGGSGKTLSMENIQSLNAAYATSGPMYLSDHENVGAETPKSTMTLGRSGGRLPYGVRMTAMGSSPNIASSGVASDTIAFGEHHLPPVSMASTVPHSLRQARDNTIMDLQTQLKEVLRENDLLRKDVEVKESKLSSSMNSIKTFWSPELKKERALRKDEASKITIWKEQYRVVQEENQHMQMTIQALQDELRIQRDLNQLFQQDSSSRTGEPCVAELTEENFQRLHAEHERQAKELFLLRKTLEEMELRIETQKQTLNARDESIKKLLEMLQSKGLSAKATEEDHERTRRLAEAEMHVHHLESLLEQKEKENNMLREEMHRRFENAPDSAKTKALQTVIEMKDSKISSMERGLRDLEEEIQMLKSNGALSSEEREEEMKQMEVYRSHSKFMKNKVEQLKEELSSKDAQGEELKKRAAGLQSEIGQVKQELSRKDTELLALQTKLETLTNQFSDSKQHIEVLKESLTAKEQRAAILQTEVDALRLRLEEKETMLNKKTKQIQDMAEEKGTQAGEIHDLKDMLDVKERKVNVLQKKIENLQEQLRDKEKQMSSLKERVKSLQADTTNTDTALTTLEEALADKERTIERLKEQRDRDEREKQEEIDTYKKDLKDLREKVSLLQGDLSEKEASLLDIKEHASSLASSGLKKDSRLKTLEIALEQKKEECLKMESQLKKAHEATLEARASPEMSDRIQQLEREISRYKDESSKAQTEVDRLLEILKEVENEKNDKDKKIAELESLTSRQVKDQNKKVANLKHKEQVEKKKSAQMLEEARRREDSLSDSSQQLQDSLRKKDDRIEELEEALRESVQITAEREMVLAQEESARTNAEKQVEELLMAMEKVKQELESMKAKLSSTQQSLAEKETHLTNLRAERRKHLEEVLEMKQEALLAAISEKDANIALLELSSSKKKTQEEVAALKREKDRLVQQLKQQTQNRMKLMADNYEDDHFRSSRSNQTNHKPSPDQIIQPLLELDQNRSKLKLYIGHLTALCHDRDPLILRGLTPPASYNADGEQAAWENELQQMTQEQLQNELEKVEGDNAELQEFANTILQQIADHCPDILEQVVNALEESS
B2: the binding entry in experiment [1] is listed as “binds”.

B3: RILPL1 (protein, UniProt Q9JJC6 1-406)
chain: MEEPLGSPPAALSALEKNVAELTVMDVYDIASLVGHEFERVIDQHGCESIARLMPKVVRVLEILEVLVSRHHVAPELDELRLELDRLRVERMDRIEKERKHQKELELVEDVWRGEAQDLLSQIAQLQEENKQLMTNLNHKDVGFSEEEFQKQEGMSERERQVMKRLKEVVDKQRDELRAKDRELGLKNEDVEALQQQQTRLMKINHDLRHRVTVVEAQGKALIEQKVELEADLQTKEQEMGSLRAELGKLRERLQGEHSQNGEEEEAEIQPQPDGEESISDAEKAALDLKDPNRPRFTLQELRDVLHERNELKSKVFLLQEELAYYKSEEIEEENRIPQPPPITHPRTSPQPESGIKRLFSFFSRDKKRLANTQRPTHIHESFGQWAITQRDDGYTEQGQEALQHL
Regarding B3, in experiment [2], the binding entry is “binds”.

B4: RILPL2 (protein, UniProt Q99LE1 1-197)
chain: MEDHPVREEEDGEEDEGALAKSPLQLTTDDVYDISYVVGRELMALGSDPRVTRLQFKIVRVMEMLETLVNEGSLAVEELRMERDNLKQEVEGLRKAGVSGAQVNLGPDKMVVDLTDPNRPRFTLQELREVLQERNKLKSQLLLVQEELQCYRSGLLPPRETPGGRREKDAVVAMGNGEKEERTIMKKLFSFRSGKHT
As for B4, the binding result in experiment [2] is “binds”.
